# Data as given in the supplement of paper PMC10849652.
# By UniProt entry, the sequences of proteins in these tests, tags left out. Where a name states a change or a piece, a line headed by the entry shows the natural chain unless it says otherwise.
# UniProt O43505: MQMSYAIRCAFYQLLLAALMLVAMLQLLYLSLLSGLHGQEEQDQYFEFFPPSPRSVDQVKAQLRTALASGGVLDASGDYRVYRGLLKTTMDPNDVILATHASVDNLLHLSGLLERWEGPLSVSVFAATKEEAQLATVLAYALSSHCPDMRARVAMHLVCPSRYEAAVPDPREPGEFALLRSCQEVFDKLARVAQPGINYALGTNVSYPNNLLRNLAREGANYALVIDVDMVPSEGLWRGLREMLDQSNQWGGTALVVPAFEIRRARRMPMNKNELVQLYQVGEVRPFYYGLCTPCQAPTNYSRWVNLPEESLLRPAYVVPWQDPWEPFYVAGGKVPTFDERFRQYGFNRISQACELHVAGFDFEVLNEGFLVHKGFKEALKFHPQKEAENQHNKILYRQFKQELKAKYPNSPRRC
# UniProt Q86WA6: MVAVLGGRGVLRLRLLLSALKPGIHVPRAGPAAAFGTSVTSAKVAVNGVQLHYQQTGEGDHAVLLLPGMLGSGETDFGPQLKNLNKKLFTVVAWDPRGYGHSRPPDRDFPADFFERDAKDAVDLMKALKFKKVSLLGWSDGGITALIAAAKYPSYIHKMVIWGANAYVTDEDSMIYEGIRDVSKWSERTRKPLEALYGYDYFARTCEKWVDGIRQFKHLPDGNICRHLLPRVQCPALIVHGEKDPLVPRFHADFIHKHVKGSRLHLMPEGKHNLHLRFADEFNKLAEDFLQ
# UniProt Q8WUW1: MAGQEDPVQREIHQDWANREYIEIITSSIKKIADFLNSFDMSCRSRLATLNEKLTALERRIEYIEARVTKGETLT
# UniProt O75882: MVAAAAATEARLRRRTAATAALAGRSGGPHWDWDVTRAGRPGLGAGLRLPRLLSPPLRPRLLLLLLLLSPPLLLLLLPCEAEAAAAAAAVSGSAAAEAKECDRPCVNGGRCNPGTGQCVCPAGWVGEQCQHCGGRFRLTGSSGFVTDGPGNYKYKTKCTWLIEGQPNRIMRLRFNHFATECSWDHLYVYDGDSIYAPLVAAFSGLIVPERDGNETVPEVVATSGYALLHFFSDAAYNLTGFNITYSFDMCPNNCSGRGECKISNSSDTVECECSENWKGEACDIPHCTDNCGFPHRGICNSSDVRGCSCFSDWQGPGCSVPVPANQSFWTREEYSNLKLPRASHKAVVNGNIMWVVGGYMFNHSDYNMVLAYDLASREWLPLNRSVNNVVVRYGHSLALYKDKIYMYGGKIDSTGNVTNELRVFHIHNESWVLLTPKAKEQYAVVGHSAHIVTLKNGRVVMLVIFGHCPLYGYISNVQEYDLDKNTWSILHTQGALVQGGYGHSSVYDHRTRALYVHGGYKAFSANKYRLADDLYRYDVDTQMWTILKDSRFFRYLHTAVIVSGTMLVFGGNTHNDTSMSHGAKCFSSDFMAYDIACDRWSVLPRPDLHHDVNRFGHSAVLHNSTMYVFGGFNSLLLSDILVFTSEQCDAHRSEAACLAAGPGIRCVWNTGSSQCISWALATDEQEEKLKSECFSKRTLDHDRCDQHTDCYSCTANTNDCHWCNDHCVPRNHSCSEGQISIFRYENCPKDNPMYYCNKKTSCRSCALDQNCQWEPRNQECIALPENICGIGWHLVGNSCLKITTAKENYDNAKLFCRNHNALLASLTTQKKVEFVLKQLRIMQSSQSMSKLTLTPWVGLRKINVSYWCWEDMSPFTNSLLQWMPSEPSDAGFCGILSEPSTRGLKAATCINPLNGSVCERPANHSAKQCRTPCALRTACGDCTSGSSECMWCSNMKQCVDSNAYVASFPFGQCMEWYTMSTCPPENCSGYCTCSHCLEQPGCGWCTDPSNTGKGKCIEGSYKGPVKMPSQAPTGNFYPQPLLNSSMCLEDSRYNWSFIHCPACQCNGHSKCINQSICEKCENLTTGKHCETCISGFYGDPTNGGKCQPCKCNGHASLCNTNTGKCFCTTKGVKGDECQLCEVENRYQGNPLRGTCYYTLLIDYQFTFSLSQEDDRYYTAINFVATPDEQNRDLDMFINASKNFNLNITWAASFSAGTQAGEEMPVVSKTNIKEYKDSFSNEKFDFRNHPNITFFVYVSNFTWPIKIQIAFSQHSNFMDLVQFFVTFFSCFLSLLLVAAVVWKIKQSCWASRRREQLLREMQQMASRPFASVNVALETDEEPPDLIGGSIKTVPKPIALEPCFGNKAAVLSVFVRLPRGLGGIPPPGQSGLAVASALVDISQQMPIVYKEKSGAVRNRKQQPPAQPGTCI
# UniProt Q9Y679: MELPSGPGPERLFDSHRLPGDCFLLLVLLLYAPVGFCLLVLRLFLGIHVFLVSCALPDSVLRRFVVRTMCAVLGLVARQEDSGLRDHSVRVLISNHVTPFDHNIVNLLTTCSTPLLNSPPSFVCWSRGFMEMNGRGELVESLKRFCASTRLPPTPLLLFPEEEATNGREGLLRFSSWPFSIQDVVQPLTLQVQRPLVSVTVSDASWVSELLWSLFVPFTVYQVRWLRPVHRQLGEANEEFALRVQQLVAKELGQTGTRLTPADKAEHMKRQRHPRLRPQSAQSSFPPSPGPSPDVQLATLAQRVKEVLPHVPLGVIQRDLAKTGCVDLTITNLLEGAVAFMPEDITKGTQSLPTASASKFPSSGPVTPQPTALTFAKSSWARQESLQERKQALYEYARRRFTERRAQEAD
# UniProt Q9UL15: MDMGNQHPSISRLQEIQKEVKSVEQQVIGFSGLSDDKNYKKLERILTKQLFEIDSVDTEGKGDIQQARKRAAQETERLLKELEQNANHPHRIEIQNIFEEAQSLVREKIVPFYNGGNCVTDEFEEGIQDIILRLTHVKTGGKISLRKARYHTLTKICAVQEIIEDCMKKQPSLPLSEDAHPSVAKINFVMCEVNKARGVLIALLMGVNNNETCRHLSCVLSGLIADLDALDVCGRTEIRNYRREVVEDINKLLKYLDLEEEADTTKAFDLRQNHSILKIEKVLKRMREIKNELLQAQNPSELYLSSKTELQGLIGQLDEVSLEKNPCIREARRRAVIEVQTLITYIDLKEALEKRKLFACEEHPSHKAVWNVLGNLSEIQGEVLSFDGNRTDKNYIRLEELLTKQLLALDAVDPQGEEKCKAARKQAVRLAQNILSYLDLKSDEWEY
# UniProt P30043: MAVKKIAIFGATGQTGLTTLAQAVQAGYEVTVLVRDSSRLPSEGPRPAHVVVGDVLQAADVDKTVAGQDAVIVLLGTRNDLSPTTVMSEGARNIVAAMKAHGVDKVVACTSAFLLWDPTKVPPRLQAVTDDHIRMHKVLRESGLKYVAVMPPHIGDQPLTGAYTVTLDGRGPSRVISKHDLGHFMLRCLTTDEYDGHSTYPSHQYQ
# UniProt Q9NSY1, whole entry, looked up: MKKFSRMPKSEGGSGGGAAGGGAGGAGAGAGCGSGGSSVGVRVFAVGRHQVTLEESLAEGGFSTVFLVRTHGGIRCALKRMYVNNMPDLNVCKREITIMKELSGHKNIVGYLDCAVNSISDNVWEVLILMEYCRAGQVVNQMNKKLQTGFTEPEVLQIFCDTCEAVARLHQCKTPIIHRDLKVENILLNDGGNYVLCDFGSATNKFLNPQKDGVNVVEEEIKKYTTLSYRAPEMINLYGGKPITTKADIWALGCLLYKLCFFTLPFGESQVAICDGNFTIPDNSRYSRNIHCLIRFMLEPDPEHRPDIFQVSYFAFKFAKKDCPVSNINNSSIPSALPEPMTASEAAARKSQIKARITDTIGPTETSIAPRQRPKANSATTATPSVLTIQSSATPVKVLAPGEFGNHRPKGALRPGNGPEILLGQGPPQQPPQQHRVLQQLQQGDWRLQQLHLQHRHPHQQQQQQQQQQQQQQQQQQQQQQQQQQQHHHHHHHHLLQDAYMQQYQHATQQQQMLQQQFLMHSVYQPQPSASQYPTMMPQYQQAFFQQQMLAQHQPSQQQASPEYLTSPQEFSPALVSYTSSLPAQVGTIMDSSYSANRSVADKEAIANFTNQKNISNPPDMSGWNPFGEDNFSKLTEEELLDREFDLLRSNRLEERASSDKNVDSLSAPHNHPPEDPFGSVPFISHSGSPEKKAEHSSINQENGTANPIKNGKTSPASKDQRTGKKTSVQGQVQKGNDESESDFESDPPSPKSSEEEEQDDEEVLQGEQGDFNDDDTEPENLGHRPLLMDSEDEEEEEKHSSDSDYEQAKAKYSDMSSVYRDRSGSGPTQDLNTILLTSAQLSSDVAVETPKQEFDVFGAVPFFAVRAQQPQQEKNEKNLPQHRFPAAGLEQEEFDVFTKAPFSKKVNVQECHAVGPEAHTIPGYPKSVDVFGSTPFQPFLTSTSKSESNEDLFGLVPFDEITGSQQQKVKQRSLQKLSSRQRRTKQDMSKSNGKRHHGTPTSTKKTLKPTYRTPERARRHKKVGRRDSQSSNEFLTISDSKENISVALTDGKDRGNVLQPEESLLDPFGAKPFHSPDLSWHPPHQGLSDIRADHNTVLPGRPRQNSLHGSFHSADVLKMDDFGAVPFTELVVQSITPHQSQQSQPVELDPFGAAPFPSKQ
# UniProt Q9NYF8, whole entry, looked up: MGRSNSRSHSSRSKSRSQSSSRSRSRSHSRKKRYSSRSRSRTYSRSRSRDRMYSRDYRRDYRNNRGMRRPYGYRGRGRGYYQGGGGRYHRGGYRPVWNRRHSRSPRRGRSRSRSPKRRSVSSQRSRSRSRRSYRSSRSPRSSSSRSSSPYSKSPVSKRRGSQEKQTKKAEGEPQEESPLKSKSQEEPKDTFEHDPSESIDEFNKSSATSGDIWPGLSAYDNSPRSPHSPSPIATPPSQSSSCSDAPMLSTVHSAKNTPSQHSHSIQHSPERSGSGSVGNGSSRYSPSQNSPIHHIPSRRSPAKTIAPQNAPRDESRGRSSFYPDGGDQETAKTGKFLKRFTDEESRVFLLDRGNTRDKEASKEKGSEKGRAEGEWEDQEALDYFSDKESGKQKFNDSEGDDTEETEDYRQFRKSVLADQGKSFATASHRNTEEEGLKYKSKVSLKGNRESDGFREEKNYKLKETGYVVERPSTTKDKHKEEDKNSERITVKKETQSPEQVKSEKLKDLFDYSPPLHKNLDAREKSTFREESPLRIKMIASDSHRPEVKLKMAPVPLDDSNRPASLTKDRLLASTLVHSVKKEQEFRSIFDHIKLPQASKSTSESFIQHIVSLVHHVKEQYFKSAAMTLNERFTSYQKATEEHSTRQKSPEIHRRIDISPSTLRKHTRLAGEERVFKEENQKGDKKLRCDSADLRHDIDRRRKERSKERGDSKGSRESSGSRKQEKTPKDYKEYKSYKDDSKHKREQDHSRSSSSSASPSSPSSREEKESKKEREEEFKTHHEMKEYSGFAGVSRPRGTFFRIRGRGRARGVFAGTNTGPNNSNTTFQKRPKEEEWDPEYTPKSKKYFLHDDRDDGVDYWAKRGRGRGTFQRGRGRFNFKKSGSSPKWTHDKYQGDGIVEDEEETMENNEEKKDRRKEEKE
# UniProt P15056, whole entry, looked up: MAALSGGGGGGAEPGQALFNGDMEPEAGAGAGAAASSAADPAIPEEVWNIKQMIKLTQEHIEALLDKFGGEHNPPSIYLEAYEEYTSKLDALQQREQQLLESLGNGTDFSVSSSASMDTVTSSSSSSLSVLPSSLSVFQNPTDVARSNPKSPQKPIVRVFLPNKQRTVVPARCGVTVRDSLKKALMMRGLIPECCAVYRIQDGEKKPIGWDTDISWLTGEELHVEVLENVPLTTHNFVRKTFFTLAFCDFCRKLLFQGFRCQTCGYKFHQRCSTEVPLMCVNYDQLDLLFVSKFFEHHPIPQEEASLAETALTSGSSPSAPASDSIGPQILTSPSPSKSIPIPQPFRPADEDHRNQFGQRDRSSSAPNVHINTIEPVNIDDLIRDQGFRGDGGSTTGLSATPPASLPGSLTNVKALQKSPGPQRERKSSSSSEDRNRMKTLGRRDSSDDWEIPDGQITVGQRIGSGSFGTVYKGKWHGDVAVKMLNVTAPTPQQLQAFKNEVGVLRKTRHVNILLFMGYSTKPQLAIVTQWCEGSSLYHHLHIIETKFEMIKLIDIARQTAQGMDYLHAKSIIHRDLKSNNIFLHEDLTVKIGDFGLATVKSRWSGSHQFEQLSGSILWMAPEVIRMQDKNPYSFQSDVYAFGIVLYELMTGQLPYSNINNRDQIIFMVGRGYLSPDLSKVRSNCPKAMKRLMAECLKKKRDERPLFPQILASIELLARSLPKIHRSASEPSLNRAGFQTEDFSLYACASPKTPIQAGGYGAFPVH
# UniProt Q9UHQ4: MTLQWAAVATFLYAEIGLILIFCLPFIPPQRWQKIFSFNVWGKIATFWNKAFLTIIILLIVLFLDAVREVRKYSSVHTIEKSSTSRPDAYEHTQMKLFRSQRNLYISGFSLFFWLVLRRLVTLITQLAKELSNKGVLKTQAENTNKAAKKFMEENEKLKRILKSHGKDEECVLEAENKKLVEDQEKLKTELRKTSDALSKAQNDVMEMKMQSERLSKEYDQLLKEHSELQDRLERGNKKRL
# UniProt O15392, whole entry, looked up: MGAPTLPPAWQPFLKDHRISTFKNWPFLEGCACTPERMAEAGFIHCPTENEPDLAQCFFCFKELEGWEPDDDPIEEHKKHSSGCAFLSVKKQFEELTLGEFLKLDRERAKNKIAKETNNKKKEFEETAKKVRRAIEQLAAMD
# This is one part of the list.
# Legend:
# Test in all cases: log2 fold change, soluble protein after heating vs DMSO (PISA); higher = thermal stabilisation; K562 cells, 10 uM, 30 min; active = over 0.2 and 3.5 SD of the protein, either way, in both replicates (recomputed)
# [1] = compound: CC[C@@H]1C(=O)N(C)c2cnc(Nc3ccc(C(=O)NC4CCN(C)CC4)cc3OC)nc2N1C1CCCC1
# Procedure, shortened: (§1)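 Aliquots of K562 cells (2×10^6 cells/mL) treated with 10 μM compound for 30 min were heated for 3 min over 48°C-58°C. After pooling and extraction in PBS with 0.5% NP-40 at 4°C, soluble protein from a 21,000xg, 90 min spin was quantified by TMTpro 16plex LC-MS/MS with channel sums equalised. Thermal stability is expressed against control samples, from duplicates, as a log2 fold change.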
# [2] = compound: CC[C@@H]1C(=O)N(C)c2cnc(Nc3ccc(C(=O)N[C@H]4CC[C@H](N5CCN(CC6CC6)CC5)CC4)cc3OC)nc2N1C(C)C [volasertib]
# Procedure, shortened: as §1
# [3] = compound: CC[C@H](C)N1C=C(C2=C(C=C(C=C21)C3=CN=C(C=C3)N4CCNCC4)C(=O)NCC5=C(C=C(NC5=O)C)C)C
# Procedure, shortened: as §1
# [4] = compound: CC[C@H](C)[C@@H](C(=O)N[C@@H]([C@@H](C)O)C(=O)N[C@@H](CC(C)C)C(=O)[C@]1(CO1)C)NC(=O)[C@H]([C@@H](C)CC)N(C)C(=O)C [epoxomicin]
# Procedure, shortened: as §1
# [5] = compound: CCn1c(C(=O)N(C2CC2)C2CC2)cc2c3c(ncn3C)c(Nc3cc(C)n(C)n3)nc21
# Procedure, shortened: as §1
# [6] = compound: CCn1cc(-c2ccnc3[nH]c(-c4cccc(CN(C)C)c4)cc23)c(-c2ccc(NC(=O)N(C)C)cc2)n1
# Procedure, shortened: as §1
# [7] = compound: CN(C)CC(=O)Nc1ccc2[nH]c(=O)c3ccccc3c2c1
# Procedure, shortened: as §1
# [8] = compound: CN(CCOC1=CC=C(C=C1)C[C@H]2C(=O)NC(=O)S2)C3=CC=CC=N3 (racemic) [rosiglitazone]
# Procedure, shortened: as §1
# [9] = compound: CN1C2=C(C3=C1C(=O)N(N=C3)CC4=CC(=CC=C4)N)SC(=C2)S(=O)C
# Procedure, shortened: as §1
# [10] = compound: CN1CCC(CNc2ccc3ncc(-c4cccc(OC(F)(F)F)c4)n3n2)CC1
# Procedure, shortened: as §1
# [11] = compound: CN1CCN(CCOc2cc(OC3CCOCC3)c3c(Nc4c(Cl)ccc5c4OCO5)ncnc3c2)CC1 [saracatinib]
# Procedure, shortened: as §1
# [12] = compound: CN1CC[C@H](c2c(O)cc(O)c3c(=O)cc(-c4ccccc4Cl)oc23)[C@H](O)C1 [alvocidib]
# Procedure, shortened: as §1
# [13] = compound: CN1CCc2c(c3ccccc3n2Cc2ccc(C(=O)NO)cc2)C1 [Tubastatin A]
# Procedure, shortened: as §1
# [14] = compound: CNC(=O)C1=CC=CC=C1NC2=NC(=NC=C2Cl)NC3=C(C=C(C=C3)N4CCOCC4)OC
# Procedure, shortened: as §1
# [15] = compound: CNC(=O)c1ccc(Nc2ncc(C(F)(F)F)c(NCc3nccnc3N(C)S(C)(=O)=O)n2)cc1 [defactinib]
# Procedure, shortened: as §1
# [16] = compound: CNCc1ccc(-c2[nH]c3cc(F)cc4c3c2CCNC4=O)cc1 [rucaparib]
# Procedure, shortened: as §1
# [17] = compound: CNc1nc(-c2ccc3c(N)n[nH]c3c2)cc(N2C[C@@H](C(=O)NC3CCCCC3)CC[C@H]2C)n1
# Procedure, shortened: as §1
# [18] = compound: COC(=O)N[C@@H](C)CNc1nccc(-c2cn(C(C)C)nc2-c2cc(Cl)cc(NS(C)(=O)=O)c2F)n1 [encorafenib]
# Procedure, shortened: as §1
# [19] = compound: COC(=O)[C@H](CCSC)NC(=O)C1=C(C=C(C=C1)NC[C@H](CS)N)C2=CC=CC=C2
# Procedure, shortened: as §1
# [20] = compound: CN1CCN(c2nc(C3=C(c4c[nH]c5ccccc45)C(=O)NC3=O)c3ccccc3n2)CC1 [sotrastaurin]
# Procedure, shortened: as §1
Target,log2 fold change [1],log2 fold change [2],log2 fold change [3],log2 fold change [4],log2 fold change [5],log2 fold change [6],log2 fold change [7],log2 fold change [8],log2 fold change [9],log2 fold change [10],log2 fold change [11],log2 fold change [12],log2 fold change [13],log2 fold change [14],log2 fold change [15],log2 fold change [16],log2 fold change [17],log2 fold change [18],log2 fold change [19],log2 fold change [20]
B4GAT1 (UniProt O43505),inactive: 0.337,inactive: 0.077,inactive: -0.017,inactive: -0.022,inactive: 0.069,inactive: -0.406,inactive: -0.157,inactive: 0.058,inactive: -0.034,inactive: 0.027,inactive: 0.169,inactive: -0.022,inactive: -0.121,inactive: -0.026,inactive: 0.017,inactive: 0.139,inactive: -0.053,inactive: -0.251,inactive: 0.067,–
BLOC1S3 (UniProt Q6QNY0),inactive: 0.024,inactive: 0.018,inactive: -0.04,inactive: -0.011,–,inactive: -0.017,inactive: 0.058,–,inactive: -0.062,inactive: -0.01,inactive: 0.049,–,inactive: -0.064,inactive: -0.05,inactive: -0.044,inactive: -0.047,inactive: -0.031,inactive: -0.035,inactive: 0.028,inactive: 0.034
BPHL (UniProt Q86WA6),inactive: 0.013,inactive: -0.005,inactive: 0.065,inactive: 0.005,–,inactive: -0.017,inactive: -0.07,–,inactive: 0.017,inactive: 0.063,inactive: 0.056,–,inactive: -0.259,inactive: 0.025,inactive: -0.014,inactive: 0.069,inactive: 0.006,inactive: -0.012,inactive: -0.017,inactive: 0.019
BRK1 isoform 2 (UniProt Q8WUW1),inactive: 0.074,inactive: -0.021,inactive: -0.02,active: 0.497,–,inactive: -0.009,inactive: 0.031,–,inactive: -0.053,inactive: 0.137,inactive: 0.036,–,inactive: 0.037,inactive: -0.011,inactive: -0.074,inactive: -0.05,inactive: -0.03,inactive: -0.063,inactive: -0.018,inactive: 0.007
BRI3BP (UniProt Q8WY22),inactive: 0.022,inactive: 0.038,inactive: -0.005,inactive: 0.048,inactive: -0.095,–,inactive: -0.022,inactive: -0.065,inactive: 0.04,–,inactive: -0.017,inactive: -0.012,inactive: 0.07,inactive: -0.173,inactive: -0.084,inactive: 0.089,inactive: -0.06,inactive: -0.006,inactive: 0.047,inactive: 0.2
BRIP1 (UniProt Q9BX63),inactive: -0.067,inactive: 0.008,inactive: -0.004,inactive: -0.008,–,inactive: -0.122,inactive: -0.068,–,inactive: 0.041,inactive: -0.084,inactive: -0.034,–,inactive: -0.089,inactive: 0.001,inactive: 0.083,inactive: -0.068,inactive: -0.088,inactive: -0.003,inactive: 0.018,inactive: -0.016
ATRN (UniProt O75882),inactive: 0.029,inactive: -0.094,inactive: -0.019,inactive: 0.063,–,inactive: 0.004,inactive: -0.01,–,inactive: 0.095,inactive: 0.121,inactive: 0.05,–,inactive: 0.012,inactive: -0.017,inactive: -0.065,inactive: 0.022,inactive: 0.12,inactive: -0.05,inactive: 0.045,inactive: -0.047
AUP1 (UniProt Q9Y679),inactive: -0.132,inactive: -0.253,inactive: 0.032,inactive: 0.046,–,inactive: -0.028,inactive: 0.089,–,inactive: 0.014,active: -0.24,inactive: 0.052,–,inactive: 0.031,inactive: -0.062,inactive: -0.015,inactive: -0.04,inactive: -0.041,inactive: 0.029,inactive: -0.037,inactive: -0.116
BAG5 isoform 2 (UniProt Q9UL15),inactive: -0.111,inactive: -0.092,inactive: 0.135,inactive: 0.015,inactive: -0.017,inactive: -0.034,inactive: -0.065,inactive: -0.019,–,inactive: -0.002,–,inactive: -0.178,inactive: 0.029,inactive: 0.095,inactive: -0.102,inactive: 0.023,–,inactive: -0.041,inactive: -0.073,inactive: -0.042
BLVRB (UniProt P30043),inactive: 0.008,inactive: 0.046,inactive: 0.012,inactive: 0.161,–,inactive: -0.078,inactive: 0.014,–,inactive: -0.049,inactive: 0.127,inactive: 0.101,–,inactive: -0.002,inactive: 0.058,inactive: -0.045,inactive: 0.043,inactive: 0.061,inactive: -0.007,inactive: -0.003,inactive: -0.047
BCCIP isoform 2 (UniProt Q9P287),inactive: -0.037,inactive: -0.038,inactive: 0.044,inactive: 0.019,–,inactive: 0.022,inactive: 0.026,–,inactive: -0.042,inactive: -0.028,inactive: -0.004,–,inactive: -0.036,inactive: 0.013,inactive: -0.019,inactive: 0.087,inactive: -0.005,inactive: 0.037,inactive: -0.024,inactive: -0.044
BMP2K (UniProt Q9NSY1),inactive: 0.13,inactive: 0.115,inactive: -0.02,inactive: -0.053,–,inactive: 0.023,inactive: -0.058,–,inactive: 0.008,active: 0.656,inactive: 0.071,–,inactive: 0.015,inactive: 0.183,inactive: 0.179,inactive: 0.064,inactive: -0.029,inactive: -0.069,inactive: -0.012,inactive: 0.023
BCLAF1 (UniProt Q9NYF8),inactive: -0.089,inactive: -0.08,inactive: 0.024,inactive: -0.027,–,inactive: -0.002,inactive: 0.099,–,inactive: -0.015,inactive: 0.024,inactive: -0.033,–,inactive: 0.184,inactive: -0.275,inactive: -0.382,inactive: 0.017,inactive: -0.057,inactive: 0.013,inactive: -0.028,inactive: 0.039
BRAF (UniProt P15056),inactive: 0,inactive: -0.097,inactive: 0.043,inactive: 0.04,–,inactive: 0.029,inactive: 0.036,–,inactive: -0.039,inactive: -0.07,inactive: 0.029,–,inactive: 0.007,inactive: -0.02,inactive: -0.058,inactive: 0.013,inactive: -0.059,inactive: 0.014,inactive: -0.037,inactive: -0.069
BET1L (UniProt Q9NYM9),inactive: 0,inactive: -0.009,inactive: -0.022,inactive: 0.08,inactive: 0.02,–,inactive: 0.008,–,inactive: -0.181,–,inactive: 0.127,inactive: -0.382,inactive: 0.013,inactive: 0.053,inactive: -0.072,inactive: 0.097,inactive: 0.024,inactive: -0.06,inactive: 0.025,inactive: 0.114
BCAP29 isoform 2 (UniProt Q9UHQ4),inactive: 0.022,inactive: 0.085,inactive: -0.072,inactive: -0.096,–,inactive: -0.011,inactive: -0.008,–,inactive: -0.044,inactive: 0.05,inactive: 0.052,–,inactive: -0.052,inactive: 0.002,inactive: 0.033,inactive: -0.043,inactive: -0.016,inactive: -0.026,inactive: 0.018,inactive: 0.104
BRD8 (UniProt Q9H0E9),inactive: 0.038,inactive: -0.044,inactive: -0.013,inactive: 0.039,–,inactive: 0.043,inactive: -0.044,–,inactive: 0.025,inactive: -0.063,inactive: 0.004,–,inactive: -0.097,inactive: -0.017,inactive: -0.047,inactive: -0.012,inactive: -0.08,inactive: -0.027,inactive: -0.009,inactive: -0.001
BIRC5 (UniProt O15392),inactive: 0.072,inactive: 0.037,inactive: -0.058,inactive: 0.096,inactive: -0.011,–,inactive: -0.047,inactive: -0.022,inactive: 0.084,–,inactive: 0.078,inactive: -0.059,inactive: 0.018,inactive: 0.02,inactive: -0.013,inactive: -0.097,inactive: -0.144,inactive: -0.116,inactive: 0,inactive: 0.017

# Quoted at random: 2 records from the list
Target,log2 fold change [1],log2 fold change [2],log2 fold change [3],log2 fold change [4],log2 fold change [5],log2 fold change [6],log2 fold change [7],log2 fold change [8],log2 fold change [9],log2 fold change [10],log2 fold change [11],log2 fold change [12],log2 fold change [13],log2 fold change [14],log2 fold change [15],log2 fold change [16],log2 fold change [17],log2 fold change [18],log2 fold change [19],log2 fold change [20]
B4GAT1 (UniProt O43505),inactive: 0.337,inactive: 0.077,inactive: -0.017,inactive: -0.022,inactive: 0.069,inactive: -0.406,inactive: -0.157,inactive: 0.058,inactive: -0.034,inactive: 0.027,inactive: 0.169,inactive: -0.022,inactive: -0.121,inactive: -0.026,inactive: 0.017,inactive: 0.139,inactive: -0.053,inactive: -0.251,inactive: 0.067,–
BLVRB (UniProt P30043),inactive: 0.008,inactive: 0.046,inactive: 0.012,inactive: 0.161,–,inactive: -0.078,inactive: 0.014,–,inactive: -0.049,inactive: 0.127,inactive: 0.101,–,inactive: -0.002,inactive: 0.058,inactive: -0.045,inactive: 0.043,inactive: 0.061,inactive: -0.007,inactive: -0.003,inactive: -0.047
